PMC9963953, “Structures of MPND Reveal the Molecular Recognition of Nucleosomes”
Results are given in words; binding and its absence hold for the method and conditions named. Some results given as binding are weak or reduced against the parent protein; the word gives no strength. Values belong to the binder of their own block, whether it stands above or below them.

Tests used:
[1] = target: apo–MPND(54–163) (Mus musculus) (UniProt Q3TV65); assay: SAXS; apo–MPND54–163 at a range of concentrations (1.25 mg/mL shown), 20 mM HEPES pH 7.2, 100 mM NaCl, 2 mM β-mercaptoethanol; FoXS profiles and minimal ensemble search of monomer and dimers; both purified
[2] = target: apo–MPND (residues 2–160) (Mus musculus) (UniProt Q3TV65); assay: crystal structure; apo–MPND (residues 2–160), space group P212121, 2.06 Å; two protomers in the asymmetric unit; both purified

binding [1]: binds weakly
B1: apo–MPND(54–163) (domain or fragment, UniProt Q3TV65 54-163)
chain: MALGGALTRRAVTLRVLLKDELLEPGEGVLSIYYLGRKFTGDLQLDGRIVWQETGQVFNSPSAWATHCKKLVNPAKKSGCGWASVKYKGQKLDKYKAAWLRRHQLHMPVA

binding [2]: binds weakly
B2: apo–MPND (residues 2–160) (domain or fragment, UniProt Q3TV65 2-160)
chain: AAPESLSPGATAEEAPEEDEDDAEAEDPERGTGSGGRSGSLGGSGGGTAGPGMALGGALTRRAVTLRVLLKDELLEPGEGVLSIYYLGRKFTGDLQLDGRIVWQETGQVFNSPSAWATHCKKLVNPAKKSGCGWASVKYKGQKLDKYKAAWLRRHQLHM
